Experimental data taken from patent publication US20130331317A1.
Results are given in words; binding and its absence hold for the method and conditions named. Some binding calls cover weakened binding; strength is not graded here.

Amino acid sequences for entries named in this document (tags omitted). A change or cut given only in a name is not applied to a line headed by its entry. Residues count along the entry.
UniProt P11362, residues 142-365: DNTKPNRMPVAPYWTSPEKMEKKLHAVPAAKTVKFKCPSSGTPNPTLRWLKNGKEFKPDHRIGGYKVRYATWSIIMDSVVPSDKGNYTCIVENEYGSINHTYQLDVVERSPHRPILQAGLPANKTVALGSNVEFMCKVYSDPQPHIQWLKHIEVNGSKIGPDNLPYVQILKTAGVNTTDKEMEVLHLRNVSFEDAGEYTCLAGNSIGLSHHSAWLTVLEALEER
UniProt P09038: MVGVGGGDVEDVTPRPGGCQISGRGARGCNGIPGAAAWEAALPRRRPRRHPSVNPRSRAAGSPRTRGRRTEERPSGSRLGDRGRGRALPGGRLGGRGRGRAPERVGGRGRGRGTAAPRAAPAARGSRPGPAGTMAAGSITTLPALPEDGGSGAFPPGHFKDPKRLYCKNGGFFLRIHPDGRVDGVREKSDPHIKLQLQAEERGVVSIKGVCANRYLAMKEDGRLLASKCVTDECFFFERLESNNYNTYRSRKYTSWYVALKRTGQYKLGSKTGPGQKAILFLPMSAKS

Assays:
[1] = molecular target: ligand-binding domain of human FGFR1c (D142 to R365) (human) (UniProt P11362); assay: SPR; FGFR1c ligand-binding domain passed over immobilised FGF2
[2] = molecular target: ligand-binding domain of human FGFR1c (D142 to R365) (human) (UniProt P11362); assay: SPR; FGFR1c ligand-binding domain passed over immobilised FGF
[3] = molecular target: ligand-binding domain of human FGFR1c (D142 to R365) (human) (UniProt P11362); assay: SPR; increasing concentrations of FGFR1c ligand-binding domain passed over immobilised FGF2

Measured: binding

human FGF2 (M1 to S155) (from UniProt P09038 134-288) (ligand)
binds: [1] | [2] | [3]
